Experimental findings from paper PMC5744401 are described below.

These are yes or no findings as the source states them, for the method shown. For part of these data: Binding seen in cells or lysates may run through a third protein. Some entries that bind do so weakly or less than the wild type. Where a sequence is shown, tags or fusion partners need not be part of it.

For assay [1], the target named is T1, GST-AvaR2 (Streptomyces avermitilis) (UniProt Q82H44).
T1 sequence: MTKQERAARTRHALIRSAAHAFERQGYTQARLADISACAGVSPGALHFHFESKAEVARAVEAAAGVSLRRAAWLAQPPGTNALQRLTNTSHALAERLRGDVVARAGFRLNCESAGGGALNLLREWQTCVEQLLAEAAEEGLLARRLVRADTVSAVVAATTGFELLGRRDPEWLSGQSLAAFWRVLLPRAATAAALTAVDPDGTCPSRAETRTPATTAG
The experiment in a line: pull-down; His6- and GST-tagged proteins co-expressed in E. coli BL21 (DE3); lysate incubated with glutathione-sepharose beads overnight at 4°C, washed three times with PBS buffer; Western blotting with anti-GST or anti-His antibody.

The target of assay [2] is T1, GST-AvaR2 (Streptomyces avermitilis). Nature of the assay: native gel or EMSA; competitive EMSA: 0.3 nM labeled DNA probe aveRp2 incubated with His6-AvaR1 and GST-AvaR2 together at varied concentrations; a new complex of intermediate mobility is read as heterodimer on DNA; both purified.

B1: His6-AvaR2 (protein, UniProt Q82H44 1-218)
chain: T1 sequence
In the case of B1, in assay [1], the binding result is “binds”.

B2: His6-AvaR1 (protein, UniProt Q82H41 1-234)
chain: MARQERAIRTRQTILVAAAEVFDEVGYEAATISDVLKRSGVTKGALYFHFTSKQELAQAVLAEQVASLPRVPEQELKLQQSLDEALLLAHLLREGTGDPIVQGSVRLTVDQGSPRDHLNRRVPMQAWTEHTQSLFEEARAKGEILPHADVEALAKLFVGAFTGVQVLSRIMTGRADLAERVADLYRHLMPSFAMPGILVRLDFSPERGSRVYEAAMKQRESAAASTTDAARTLE
For B2, the binding result in assay [2] and in assay [1] was “binds” in each case.
